What all share (assay): two-hybrid; bacterial two-hybrid by adenylate cyclase T18/T25 reconstitution; proteins fused to the N terminus of T25 (pKNT25) and the C terminus of T18 (pUT18C); blue colour on X-gal plates, 30 °C then room temperature
Assay [1] addresses T1, MatP, two-hybrid fusion (E. coli) (UniProt P0A8N0).
T1 sequence: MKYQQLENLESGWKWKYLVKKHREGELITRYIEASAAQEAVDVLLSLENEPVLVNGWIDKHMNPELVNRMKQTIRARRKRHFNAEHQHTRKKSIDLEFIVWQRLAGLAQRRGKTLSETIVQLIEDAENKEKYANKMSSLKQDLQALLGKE

In assay [2] the target is T2, MatPΔC18, two-hybrid fusion (E. coli) (UniProt P0A8N0).
T2 sequence: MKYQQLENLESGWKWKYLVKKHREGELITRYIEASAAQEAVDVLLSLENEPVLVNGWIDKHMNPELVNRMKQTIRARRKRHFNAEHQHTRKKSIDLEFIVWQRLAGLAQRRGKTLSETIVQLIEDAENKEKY

For assay [3], the target named is T3, MukB Hinge (MukB dimerization hinge with 172 amino acids of associated coiled-coil), two-hybrid fusion (E. coli) (UniProt P22523).
T3 sequence: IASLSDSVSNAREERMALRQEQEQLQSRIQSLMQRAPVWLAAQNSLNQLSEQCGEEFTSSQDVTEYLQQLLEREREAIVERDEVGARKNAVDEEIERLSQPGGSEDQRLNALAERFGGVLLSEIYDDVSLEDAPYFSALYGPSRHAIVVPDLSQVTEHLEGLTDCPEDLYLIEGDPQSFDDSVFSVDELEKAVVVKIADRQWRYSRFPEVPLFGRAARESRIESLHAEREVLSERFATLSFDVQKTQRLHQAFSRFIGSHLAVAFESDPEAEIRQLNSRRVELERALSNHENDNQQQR

In assay [4] the target is MatPΔC20, two-hybrid fusion (E. coli) (UniProt P0A8N0).

No constants are given. Whether binding was seen depends on the method and setting. Some binding calls cover weakened binding; strength is not graded here. Tags and fused reporters may be left off the sequences shown.

B1: MatPΔC18, two-hybrid fusion (domain or fragment, UniProt P0A8N0 1-132)
chain: T2 sequence
For B1, the binding entry is “binds” in assay [1], “binds” in assay [2] and “binds weakly” in assay [3].

B2: MatPΔC20, two-hybrid fusion (domain or fragment, UniProt P0A8N0 1-130)
chain: MKYQQLENLESGWKWKYLVKKHREGELITRYIEASAAQEAVDVLLSLENEPVLVNGWIDKHMNPELVNRMKQTIRARRKRHFNAEHQHTRKKSIDLEFIVWQRLAGLAQRRGKTLSETIVQLIEDAENKE
As for B2, the binding result in assay [1] is listed as “binds”; in assay [2] it was “binds”; in assay [4] it was “binds”; in assay [3], “binds weakly”.

B3: MukB Hinge (MukB dimerization hinge with 172 amino acids of associated coiled-coil), two-hybrid fusion (domain or fragment, UniProt P22523 566-863)
chain: T3 sequence
As for B3, the binding entry in assay [3] is reported as “binds”.

B4: MatP, two-hybrid fusion (protein, UniProt P0A8N0 1-150)
chain: T1 sequence
As to B4, the binding result is reported as “binds” in assay [1] and “binds weakly” in assay [3].

Values taken from paper PMC4738335, “MatP regulates the coordinated action of topoisomerase IV and MukBEF in chromosome segregation” (Nature Communications, 2016).
